Experimental data: PubChem BioAssay AID743121 (NCATS, 2013)
This is an unselected part of about 26,000 reagents tested. In the full data, 167 (0.63%) got an active call. 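Calls are per gene from RSA p-values that are not deposited; an individual active-marked siRNA can sensitise only weakly.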 The numbers tell different reagents against one gene apart. Reagent sequences are not shown.

Screen: 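Partners whose loss is lethal together with topoisomerase I blockade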 (primary screen)
Cells: MDA-MB-231 cells, a human breast cancer line
Reagent: single siRNA against human genes, 20 nM siRNA (0.8 pmol per well)
Duration: 120 h (drug added 48 h after transfection, read 72 h later)
Conditions: camptothecin 20 nM (about EC30) for 72 h; vehicle 0.1% DMSO in parallel plates
Detection: 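CellTiter-Glo ATP signal, scaled to control siRNA as percent viability; sensitisation given as log2 of untreated divided by camptothecin-treated viability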
Reading the numbers: log2 vehicle/camptothecin viability: higher = stronger sensitisation to camptothecin; viability with camptothecin and viability without drug: higher = more viable cells
Call rule: 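Each gene scored by redundant siRNA activity (RSA) over its individual siRNA ratios; a gene is called active at p < 0.001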

| gene | reagent no. | log2 vehicle/camptothecin viability | viability with camptothecin (% of control) | viability without drug (% of control) | Call |
| --- | --- | --- | --- | --- | --- |
| FBXO45 | 1 | -0.464 | 105 | 76.2 | inactive |
| FBXO45 | 2 | 0.00917 | 107 | 108 | inactive |
| FBXO45 | 3 | 0.108 | 81.9 | 88.2 | inactive |
| DOK3 | 1 | -0.0917 | 29 | 27.2 | inactive |
| DOK3 | 2 | 0.33 | 34.8 | 43.7 | inactive |
| DOK3 | 3 | -0.286 | 64.5 | 52.9 | inactive |
| DOK3 | 4 | 0.436 | 70.3 | 95.1 | inactive |
| TMUB1 | 1 | -0.392 | 51.8 | 39.5 | inactive |
| TMUB1 | 2 | 0.0219 | 50.6 | 51.3 | inactive |
| TMUB1 | 3 | 0.647 | 34.8 | 54.5 | inactive |
| TMUB1 | 4 | 0.143 | 65.5 | 72.4 | inactive |
| RAB6C | 1 | -0.0404 | 93.6 | 91 | inactive |
| RAB6C | 2 | 0.139 | 86.4 | 95.2 | inactive |
| RAB6C | 3 | -0.142 | 113 | 102 | inactive |
| RAB6C | 4 | -0.247 | 86.5 | 72.9 | inactive |
| PLAU | 1 | -0.508 | 91 | 64 | inactive |
| PLAU | 2 | -0.348 | 94.3 | 74 | inactive |
| PLAU | 3 | 0.385 | 56.9 | 74.4 | inactive |
| PLAU | 4 | -0.436 | 70 | 51.7 | inactive |
| PLCB3 | 1 | -0.411 | 107 | 80.4 | inactive |
| PLCB3 | 2 | -0.246 | 64 | 54 | inactive |
| PLCB3 | 3 | 0.503 | 45 | 63.8 | inactive |
| PLCB3 | 4 | -0.287 | 104 | 84.9 | inactive |
| EXOC7 | 1 | -0.0438 | 96.7 | 93.8 | inactive |
| EXOC7 | 2 | -0.412 | 114 | 85.4 | inactive |
| EXOC7 | 3 | -0.526 | 77.4 | 53.8 | inactive |
| EXOC7 | 4 | -0.0291 | 56.4 | 55.3 | inactive |
| NRIP3 | 1 | -0.0175 | 86.9 | 85.9 | inactive |
| NRIP3 | 2 | -0.317 | 77.8 | 62.4 | inactive |
| NRIP3 | 3 | -0.264 | 70.9 | 59.1 | inactive |
| ENC1 | 1 | 0.197 | 65.2 | 74.7 | inactive |
| ENC1 | 2 | -0.834 | 71.7 | 40.2 | inactive |
| CCL16 | 1 | -0.364 | 64.5 | 50.1 | inactive |
| CCL16 | 2 | -0.0914 | 69.5 | 65.3 | inactive |
| CCL16 | 3 | 0.284 | 62.5 | 76.1 | inactive |
| DAG1 | 1 | -0.0673 | 91.6 | 87.4 | inactive |
| DAG1 | 2 | -0.47 | 69.7 | 50.4 | inactive |
| DAG1 | 3 | 0.000556 | 96.5 | 96.6 | inactive |
| DAG1 | 4 | 0.119 | 37.5 | 40.7 | inactive |
| ASB4 | 1 | 0.356 | 74 | 94.7 | inactive |
| ASB4 | 2 | -0.0477 | 103 | 99.8 | inactive |
| ASB4 | 3 | -0.28 | 72.3 | 59.5 | inactive |
| PTGDR | 1 | -0.0252 | 52.8 | 51.9 | inactive |
| PTGDR | 2 | -0.708 | 77.2 | 47.3 | inactive |
| PTGDR | 3 | -0.21 | 53.7 | 46.4 | inactive |
| PTGDR | 4 | -0.0981 | 82.2 | 76.8 | inactive |
| PRSS22 | 1 | -0.299 | 91.9 | 74.7 | inactive |
| PRSS22 | 2 | -0.0618 | 64.4 | 61.7 | inactive |
| PRSS22 | 3 | 1.55 | 30.3 | 88.8 | inactive |
| PRSS22 | 4 | 0.168 | 79.5 | 89.4 | inactive |
| MAFB | 1 | -0.34 | 88.9 | 70.2 | inactive |
| MAFB | 2 | -0.145 | 56.9 | 51.5 | inactive |
| MAFB | 3 | -0.00904 | 40.2 | 39.9 | inactive |
| PKD2L2 | 1 | -0.0246 | 65.8 | 64.7 | inactive |
| PKD2L2 | 2 | -0.231 | 78.5 | 66.9 | inactive |
| PKD2L2 | 3 | 0.00954 | 57.5 | 57.9 | inactive |
| PKD2L2 | 4 | -0.254 | 54.2 | 45.5 | inactive |
| TGM2 | 1 | 1.03 | 23.9 | 48.8 | inactive |
| TGM2 | 2 | 0.925 | 7.63 | 14.5 | inactive |
| TGM2 | 3 | -0.181 | 85.4 | 75.3 | inactive |
| TGM2 | 4 | -0.311 | 80.7 | 65 | inactive |
| PDK3 | 1 | -0.0166 | 96.8 | 95.7 | inactive |
| PDK3 | 2 | -0.0383 | 93.6 | 91.2 | inactive |
| PDK3 | 3 | -0.0258 | 45.4 | 44.6 | inactive |
| PDK3 | 4 | -0.265 | 99.8 | 83 | inactive |
| ZWINT | 1 | -0.336 | 68.1 | 54 | inactive |
| ZWINT | 2 | -0.0734 | 111 | 106 | inactive |
| ZWINT | 3 | -0.29 | 102 | 83.5 | inactive |
| ZWINT | 4 | 0.437 | 27.2 | 36.8 | inactive |

Targets listed so far whose target name begins with Z or z (4):
| gene | reagent no. | log2 vehicle/camptothecin viability | viability with camptothecin (% of control) | viability without drug (% of control) | Call |
| --- | --- | --- | --- | --- | --- |
| ZWINT | 1 | -0.336 | 68.1 | 54 | inactive |
| ZWINT | 2 | -0.0734 | 111 | 106 | inactive |
| ZWINT | 3 | -0.29 | 102 | 83.5 | inactive |
| ZWINT | 4 | 0.437 | 27.2 | 36.8 | inactive |
